Assay [1] addresses T1, GST-AKR1C1 (glutathione S-transferase-tagged AKR1C1 fusion protein) (human) (UniProt Q04828).
T1 sequence: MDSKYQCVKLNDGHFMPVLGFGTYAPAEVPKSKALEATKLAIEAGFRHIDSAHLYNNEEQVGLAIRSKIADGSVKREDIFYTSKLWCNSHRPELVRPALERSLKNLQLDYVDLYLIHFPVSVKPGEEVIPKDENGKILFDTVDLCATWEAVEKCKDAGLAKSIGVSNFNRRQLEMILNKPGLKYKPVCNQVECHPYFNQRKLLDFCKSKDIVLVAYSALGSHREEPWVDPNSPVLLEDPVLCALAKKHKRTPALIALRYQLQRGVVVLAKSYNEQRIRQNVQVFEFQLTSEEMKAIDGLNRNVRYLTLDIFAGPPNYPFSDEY
Put plainly: pull-down; purified GST-AKR1C1 fusion protein with NSCLC PC-9 cell lysates; only the target purified.

Sequences of proteins named here, by UniProt entry; tags and fusion partners are left off.
UniProt Q9UBN7: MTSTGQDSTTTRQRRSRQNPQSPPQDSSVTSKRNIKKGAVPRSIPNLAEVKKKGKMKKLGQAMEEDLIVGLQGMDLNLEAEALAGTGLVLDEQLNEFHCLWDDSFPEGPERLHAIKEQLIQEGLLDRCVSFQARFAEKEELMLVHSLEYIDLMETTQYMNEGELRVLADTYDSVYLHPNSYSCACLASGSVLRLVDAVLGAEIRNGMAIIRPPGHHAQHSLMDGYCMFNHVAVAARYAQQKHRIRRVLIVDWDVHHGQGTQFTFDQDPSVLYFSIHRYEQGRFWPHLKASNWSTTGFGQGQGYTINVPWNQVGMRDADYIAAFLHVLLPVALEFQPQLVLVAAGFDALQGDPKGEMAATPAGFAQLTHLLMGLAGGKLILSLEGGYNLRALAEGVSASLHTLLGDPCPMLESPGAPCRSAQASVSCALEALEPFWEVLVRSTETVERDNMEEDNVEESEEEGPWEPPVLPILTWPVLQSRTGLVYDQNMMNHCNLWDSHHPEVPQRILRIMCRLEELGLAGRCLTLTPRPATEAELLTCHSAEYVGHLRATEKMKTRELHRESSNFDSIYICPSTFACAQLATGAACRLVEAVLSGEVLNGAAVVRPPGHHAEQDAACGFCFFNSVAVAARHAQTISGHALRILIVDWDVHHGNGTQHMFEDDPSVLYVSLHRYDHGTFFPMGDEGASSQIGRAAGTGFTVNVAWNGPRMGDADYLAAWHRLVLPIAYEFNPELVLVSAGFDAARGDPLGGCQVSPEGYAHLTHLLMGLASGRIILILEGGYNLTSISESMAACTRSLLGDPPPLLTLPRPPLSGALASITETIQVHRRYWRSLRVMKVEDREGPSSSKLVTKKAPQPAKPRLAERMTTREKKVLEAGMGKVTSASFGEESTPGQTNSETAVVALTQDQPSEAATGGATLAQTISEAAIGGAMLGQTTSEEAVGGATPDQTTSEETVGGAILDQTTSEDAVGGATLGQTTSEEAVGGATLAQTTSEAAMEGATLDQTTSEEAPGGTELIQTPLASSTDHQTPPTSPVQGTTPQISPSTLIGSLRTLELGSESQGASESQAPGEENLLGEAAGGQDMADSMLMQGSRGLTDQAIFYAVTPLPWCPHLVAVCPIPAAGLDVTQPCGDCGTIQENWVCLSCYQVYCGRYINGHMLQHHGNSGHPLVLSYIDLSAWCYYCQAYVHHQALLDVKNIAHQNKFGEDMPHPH

Assay [2] has as its target T2, Flag-tagged SIRT2 (Sirtuin 2) (UniProt Q8IXJ6).
T2 sequence: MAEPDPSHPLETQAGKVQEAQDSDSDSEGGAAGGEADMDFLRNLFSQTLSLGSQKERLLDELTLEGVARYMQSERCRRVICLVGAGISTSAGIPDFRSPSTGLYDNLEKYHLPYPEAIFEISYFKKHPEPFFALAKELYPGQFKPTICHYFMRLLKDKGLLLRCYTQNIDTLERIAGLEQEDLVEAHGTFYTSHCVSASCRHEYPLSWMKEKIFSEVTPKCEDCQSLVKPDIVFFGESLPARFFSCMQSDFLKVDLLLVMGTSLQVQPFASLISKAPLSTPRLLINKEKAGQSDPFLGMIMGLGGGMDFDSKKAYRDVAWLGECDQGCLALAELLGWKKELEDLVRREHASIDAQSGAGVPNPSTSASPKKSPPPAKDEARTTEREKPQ
Put plainly: co-IP; NCI-H1299 cells transfected with HA-tagged AKR1C1 and Flag-tagged SIRT2, singly or in combination; IP and Western blot. (Immunoblotting shows a protein as a band on a membrane.)

For assay [3], the target named is T2, Flag-tagged SIRT2 (Sirtuin 2). Put plainly: co-IP; 293FT cells transfected with HA-tagged AKR1C1 and Flag-tagged SIRT2, singly or in combination; precipitated by anti-Flag antibody; lysis buffer 25 mM Tris, 150 mM NaCl, 10% glycerol, 1% NP40, pH 7.4; Western blot.

Results are given in words; binding and its absence hold for the method and conditions named. Binding seen in cells or lysates may run through a third protein. Some results given as binding are weak or reduced against the parent protein; the word gives no strength. Where a sequence is shown, tags or fusion partners need not be part of it.

As to “HDAC6 from PC-9 cell lysates (from UniProt Q9UBN7 1-1215) (enzyme)”, the binding result in assay [1] is “no binding”.

B1: HA-tagged AKR1C1 (aldo-keto reductase family 1 member C1) (enzyme, UniProt Q04828 1-323)
chain: MDSKYQCVKLNDGHFMPVLGFGTYAPAEVPKSKALEATKLAIEAGFRHIDSAHLYNNEEQVGLAIRSKIADGSVKREDIFYTSKLWCNSHRPELVRPALERSLKNLQLDYVDLYLIHFPVSVKPGEEVIPKDENGKILFDTVDLCATWEAVEKCKDAGLAKSIGVSNFNRRQLEMILNKPGLKYKPVCNQVECHPYFNQRKLLDFCKSKDIVLVAYSALGSHREEPWVDPNSPVLLEDPVLCALAKKHKRTPALIALRYQLQRGVVVLAKSYNEQRIRQNVQVFEFQLTSEEMKAIDGLNRNVRYLTLDIFAGPPNYPFSDEY
As for B1, the binding entry in assay [2] and in assay [3] was “binds” throughout.

B2: SIRT2 from PC-9 cell lysates (enzyme, UniProt Q8IXJ6 1-389)
chain: MAEPDPSHPLETQAGKVQEAQDSDSDSEGGAAGGEADMDFLRNLFSQTLSLGSQKERLLDELTLEGVARYMQSERCRRVICLVGAGISTSAGIPDFRSPSTGLYDNLEKYHLPYPEAIFEISYFKKHPEPFFALAKELYPGQFKPTICHYFMRLLKDKGLLLRCYTQNIDTLERIAGLEQEDLVEAHGTFYTSHCVSASCRHEYPLSWMKEKIFSEVTPKCEDCQSLVKPDIVFFGESLPARFFSCMQSDFLKVDLLLVMGTSLQVQPFASLISKAPLSTPRLLINKEKAGQSDPFLGMIMGLGGGMDFDSKKAYRDVAWLGECDQGCLALAELLGWKKELEDLVRREHASIDAQSGAGVPNPSTSASPKKSPPPAKDEARTTEREKPQ
B2: the binding result in assay [1] is recorded as “binds”.

The values above are taken from article PMC7019158.
